# Values from PubChem BioAssay AID493246 (Drosophila RNAi Screening Center, 2011)
# Screen: 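Identify essential fly genes by loss of cell viability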 (primary screen)
# Cell system: Drosophila Kc and S2R+ cells
# Knock-down reagent: long dsRNA against Drosophila genes
# Detection: 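Raw, unnormalised count of remaining cells in each well; per-plate z-scores of cell number underlie the calls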
# Direction: Kc cell number and S2R+ cell number: higher = more cells remaining
# Hit rule: 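Counted as a hit if cell number falls by a z-score of at least 3 within its plate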
# In all, the deposit lists about 21,000 reagents; shown is a random part of those with a known target gene and a result. In the full data, 429 (2%) are marked active. 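Values are raw and not normalised between plates; calls rest on per-plate z-scores that were not deposited.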 A number with no mark means an inactive call. Names joined by + are all predicted targets of the reagent. Reagent sequences are not shown. Not given: the amount of reagent, the time to read-out.
target gene,amplicon,"Kc cell number, rep 1","Kc cell number, rep 2","S2R+ cell number, rep 1","S2R+ cell number, rep 2"
Fancd2 (GeneID 2768674),DRSC15208,1.20e6,1.14e6,1.06e6,1.20e6
CG32269 + CG32270,DRSC08195,1.51e6,1.26e6,9.89e5,1.22e6
Rrp40 (GeneID 319033),DRSC00074,1.46e6,1.52e6,1.06e6,1.22e6
bam (GeneID 43038),DRSC16907,1.59e6,1.58e6,1.05e6,1.19e6
CG13847 (GeneID 42636),DRSC14697,1.19e6 (active),1.46e6,6.72e5,7.67e5
CG17855 (GeneID 34269),DRSC02638,1.55e6,1.67e6,1.32e6,1.47e6
l(2)gd1 (GeneID 34543),DRSC02773,1.31e6,1.37e6,1.08e6,1.17e6
obst-I (GeneID 317966),DRSC08339,1.44e6,1.44e6,1.24e6,1.34e6

Reprinted from the listing for reference:
target gene,amplicon,"Kc cell number, rep 1","Kc cell number, rep 2","S2R+ cell number, rep 1","S2R+ cell number, rep 2"
bam (GeneID 43038),DRSC16907,1.59e6,1.58e6,1.05e6,1.19e6
CG13847 (GeneID 42636),DRSC14697,1.19e6 (active),1.46e6,6.72e5,7.67e5
CG17855 (GeneID 34269),DRSC02638,1.55e6,1.67e6,1.32e6,1.47e6
l(2)gd1 (GeneID 34543),DRSC02773,1.31e6,1.37e6,1.08e6,1.17e6

Next entries follow.
target gene,amplicon,"Kc cell number, rep 1","Kc cell number, rep 2","S2R+ cell number, rep 1","S2R+ cell number, rep 2"
CG34376 (GeneID 42638),DRSC14695,1.62e6,1.69e6,8.45e5,9.14e5
CG34376 (GeneID 42638),DRSC14696,1.29e6,1.68e6,9.50e5,1.04e6
CG34376 (GeneID 42638),DRSC14701,1.44e6,1.65e6,8.23e5,8.98e5
stl (GeneID 37619),DRSC04396,1.31e6,1.34e6,1.08e6,1.19e6
CG12825 (GeneID 35726),DRSC06174,1.48e6,1.71e6,1.23e6,1.39e6
CG13390 (GeneID 34154),DRSC02261,1.44e6,1.59e6,1.22e6,1.34e6
CG42816 + CG42815,DRSC11230,1.31e6,1.42e6,1.25e6,1.32e6
Fad2 (GeneID 44006),DRSC11165,9.54e5,9.88e5,8.79e5,1.06e6
DnaJ-1 (GeneID 38643),DRSC11145,1.18e6,1.33e6,1.09e6,8.92e5
dpr5 (GeneID 41381),DRSC15766,1.43e6,1.42e6,1.26e6,1.27e6
Ir100a (GeneID 43753),DRSC14329,1.50e6,1.48e6,1.03e6,1.13e6
CG17672 (GeneID 4379911),DRSC09230,2.64e5 (active),6.56e5,4.59e5,5.78e5
CG17672 (GeneID 4379911),DRSC10278,1.40e6,1.47e6,1.37e6,1.21e6
OtopLa (GeneID 8674066),DRSC17787,1.31e6,1.39e6,9.73e5,1.07e6
OtopLa (GeneID 8674066),DRSC18133,1.61e6,1.58e6,1.03e6,1.18e6
CG8301 (GeneID 41160),DRSC16405,1.62e6,1.66e6,1.39e6,1.46e6
